The text below walks through data of US20240226123A9, “USE OF CANNABIDIVARIN IN THE TREATMENT OF SEIZURES ASSOCIATED WITH CANINE EPILEPSY” (GW Research Limited, priority 2021, published 2024).

For this test, the system named is spike-and-wave discharges induced by gamma-butyrolactone (GBL). The test is described as follows: GBL induced absence seizure model, quantified EEG (spectral power, cortex). The test is classed as in vivo, beagle dogs.
Where [1] appears, read: Diazepam 2 mg/kg p.o., mean 10-minute periods.

Each structure is given as a SMILES string.

For the molecule `CN1C(=O)CN=C(c2ccccc2)c2cc(Cl)ccc21` [Diazepam], the “spectral power on the gamma frequency band” value reads like this: (Diazepam 2 mg/kg p.o. 60 minutes before GBL, time-interval 0-10 minutes, p<0.001) “significantly increased”; (Diazepam 2 mg/kg p.o. 60 minutes before GBL, time-interval 10-20 minutes, p<0.01) “significantly increased”; (Diazepam 2 mg/kg p.o. 60 minutes before GBL, time-interval 20-30 minutes, p<0.05) “significantly increased”. Moreover, the “spectral power on alpha frequency band” value (Diazepam 2 mg/kg p.o. 60 minutes before GBL, time-interval 20-30 minutes, vs vehicle controls, p<0.05) was “significantly decreased”. In addition, the “spectral power of lower frequency bands (delta, theta and alpha)” value (Diazepam 2 mg/kg p.o., across all four time periods) is reported as “decreased”. Further, the “spectral power on 3-6 Hz frequency band” value (Diazepam 2 mg/kg p.o., following GBL administration, vs vehicle control) was “lowered”. Further, the “spectral power of high frequency bands” value under setting [1] was “increases”. In addition, under setting [1], the “spectral power of lower frequency bands” value is “decreases”.
